# Where a chain is given by its changes, count along the chain named. Some of the results follow. At the low end of the ranking, values are background and their order means little.
# Assays:
# Settings in all cases: yeast three-hybrid, YBZ-1, SC-Leu-His + 0.5 mM 3-AT, 4 days
# [1] = target: T1, PUM1 PUF domain R6-AFF N1043A + Y1044F + Q1047F (UniProt Q14671)
# T1 sequence: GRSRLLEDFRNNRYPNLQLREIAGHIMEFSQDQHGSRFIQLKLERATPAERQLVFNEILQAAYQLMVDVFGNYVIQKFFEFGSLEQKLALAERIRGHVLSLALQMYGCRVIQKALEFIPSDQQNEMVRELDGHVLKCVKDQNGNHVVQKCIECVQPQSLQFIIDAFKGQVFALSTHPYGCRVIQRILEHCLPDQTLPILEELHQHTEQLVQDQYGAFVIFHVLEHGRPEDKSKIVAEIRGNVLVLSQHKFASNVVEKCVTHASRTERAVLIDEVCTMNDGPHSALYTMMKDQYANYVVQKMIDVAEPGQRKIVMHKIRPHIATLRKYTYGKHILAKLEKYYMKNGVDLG
# [2] = target: T2, PUM1 PUF domain R6-AWG N1043A + Y1044W + Q1047G (UniProt Q14671)
# T2 sequence: T1 sequence with F217W, F220G
# [3] = target: T3, PUM1 PUF domain R6-AYQ N1043A (UniProt Q14671)
# T3 sequence: T1 sequence with F217Y, F220Q
# [4] = target: T4, PUM1 PUF domain R6-CFC N1043C + Y1044F + Q1047C (UniProt Q14671)
# T4 sequence: T1 sequence with A216C, F220C
# [5] = target: T5, PUM1 PUF domain R6-CFE N1043C + Y1044F + Q1047E (UniProt Q14671)
# T5 sequence: T1 sequence with A216C, F220E
# [6] = target: T6, PUM1 PUF domain R6-CFF N1043C + Y1044F + Q1047F (UniProt Q14671)
# T6 sequence: T1 sequence with A216C
# [7] = target: T7, PUM1 PUF domain R6-CWG N1043C + Y1044W + Q1047G (UniProt Q14671)
# T7 sequence: T1 sequence with A216C, F217W, F220G
# [8] = target: T8, PUM1 PUF domain R6-FHS N1043F + Y1044H + Q1047S (UniProt Q14671)
# T8 sequence: T1 sequence with A216F, F217H, F220S
# [9] = target: T9, PUM1 PUF domain R6-FRL N1043F + Y1044R + Q1047L (UniProt Q14671)
# T9 sequence: T1 sequence with A216F, F217R, F220L
# [10] = target: T10, PUM1 PUF domain R6-FWG N1043F + Y1044W + Q1047G (UniProt Q14671)
# T10 sequence: T1 sequence with A216F, F217W, F220G
# [11] = target: T11, PUM1 PUF domain R6-FWV N1043F + Y1044W + Q1047V (UniProt Q14671)
# T11 sequence: T1 sequence with A216F, F217W, F220V
# [12] = target: T12, PUM1 PUF domain R6-FYR N1043F + Q1047R (UniProt Q14671)
# T12 sequence: T1 sequence with A216F, F217Y, F220R
# [13] = target: T13, PUM1 PUF domain R6-GHS N1043G + Y1044H + Q1047S (UniProt Q14671)
# T13 sequence: T1 sequence with A216G, F217H, F220S
# [14] = target: T14, PUM1 PUF domain R6-GYM N1043G + Q1047M (UniProt Q14671)
# T14 sequence: T1 sequence with A216G, F217Y, F220M
# [15] = target: T15, PUM1 PUF domain R6-HFF N1043H + Y1044F + Q1047F (UniProt Q14671)
# T15 sequence: T1 sequence with A216H
# [16] = target: T16, PUM1 PUF domain R6-IFG N1043I + Y1044F + Q1047G (UniProt Q14671)
# T16 sequence: T1 sequence with A216I, F220G
# [17] = target: T17, PUM1 PUF domain R6-IFL N1043I + Y1044F + Q1047L (UniProt Q14671)
# T17 sequence: T1 sequence with A216I, F220L
# [18] = target: T18, PUM1 PUF domain R6-IWG N1043I + Y1044W + Q1047G (UniProt Q14671)
# T18 sequence: T1 sequence with A216I, F217W, F220G
# [19] = target: T19, PUM1 PUF domain R6-IWL N1043I + Y1044W + Q1047L (UniProt Q14671)
# T19 sequence: T1 sequence with A216I, F217W, F220L
# [20] = target: T20, PUM1 PUF domain R6-IWS N1043I + Y1044W + Q1047S (UniProt Q14671)
# T20 sequence: T1 sequence with A216I, F217W, F220S
sequence,measurement,setting,value
GGCUAGAACUAGUGGAUCCCCCGGCGCCCGGCGGCUCGAGCCCGGGUAAGUGCAAAUAGUCUGCAUGCCGCCGGGCGCCAUGCCUGCAGGUCGACUCUAGAAAACAUG,binding signal (log2 enrichment (interaction score)),[1],< -7.37
same,binding signal (log2 enrichment (interaction score)),[2],-8.4
same,binding signal (log2 enrichment (interaction score)),[3],< -6.37
same,binding signal (log2 enrichment (interaction score)),[4],< -7.03
same,binding signal (log2 enrichment (interaction score)),[5],< -6.82
same,binding signal (log2 enrichment (interaction score)),[6],< -6.4
same,binding signal (log2 enrichment (interaction score)),[7],< -6.95
same,binding signal (log2 enrichment (interaction score)),[8],< -6.61
same,binding signal (log2 enrichment (interaction score)),[9],< -8.14
same,binding signal (log2 enrichment (interaction score)),[10],< -7.3
same,binding signal (log2 enrichment (interaction score)),[11],< -7.02
same,binding signal (log2 enrichment (interaction score)),[12],< -6.55
same,binding signal (log2 enrichment (interaction score)),[13],< -7.24
same,binding signal (log2 enrichment (interaction score)),[14],< -7.88
same,binding signal (log2 enrichment (interaction score)),[15],< -6.68
same,binding signal (log2 enrichment (interaction score)),[16],< -7.32
same,binding signal (log2 enrichment (interaction score)),[17],< -7.16
same,binding signal (log2 enrichment (interaction score)),[18],< -6.47
same,binding signal (log2 enrichment (interaction score)),[19],< -6.73
same,binding signal (log2 enrichment (interaction score)),[20],< -7.06

# Some of the entries above, set out differently.
sequence	measurement	setting	value
GGCUAGAACUAGUGGAUCCCCCGGCGCCCGGCGGCUCGAGCCCGGGUAAGUGCAAAUAGUCUGCAUGCCGCCGGGCGCCAUGCCUGCAGGUCGACUCUAGAAAACAUG	binding signal (log2 enrichment (interaction score))	[17]	< -7.16
same	binding signal (log2 enrichment (interaction score))	[19]	< -6.73

# From article PMC8384837
